Assay results taken from publication PMC8655035.
These are yes or no findings as the source states them, for the method shown. Some binding calls cover weakened binding; strength is not graded here.

Protein sequences, listed by entry. Tags and fused reporters are not part of them. Residues count along the entry.
UniProt Q96CG8, residues 31-243: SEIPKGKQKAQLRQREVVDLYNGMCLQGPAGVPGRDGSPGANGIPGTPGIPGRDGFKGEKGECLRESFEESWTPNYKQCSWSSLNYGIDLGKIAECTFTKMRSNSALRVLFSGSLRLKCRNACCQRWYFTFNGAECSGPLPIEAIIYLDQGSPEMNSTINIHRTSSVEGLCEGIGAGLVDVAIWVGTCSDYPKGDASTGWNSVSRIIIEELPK

Target: T1, GPR180 (G protein-coupled receptor 180) (human (endogenous in HEK-293T)) (UniProt Q86V85)
T1 sequence: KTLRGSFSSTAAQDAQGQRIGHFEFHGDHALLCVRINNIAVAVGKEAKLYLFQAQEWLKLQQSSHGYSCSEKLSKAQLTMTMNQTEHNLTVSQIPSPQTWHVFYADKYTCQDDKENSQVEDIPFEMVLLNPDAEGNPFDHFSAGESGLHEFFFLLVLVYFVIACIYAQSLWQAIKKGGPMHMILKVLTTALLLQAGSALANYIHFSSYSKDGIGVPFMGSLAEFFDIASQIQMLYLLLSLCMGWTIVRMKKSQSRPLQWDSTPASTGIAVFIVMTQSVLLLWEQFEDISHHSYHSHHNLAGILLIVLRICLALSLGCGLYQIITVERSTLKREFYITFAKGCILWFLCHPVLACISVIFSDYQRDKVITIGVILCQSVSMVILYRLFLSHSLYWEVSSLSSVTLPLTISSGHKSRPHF
Assay: binding of HiBiT-tagged ligand to cells, read by HiBiT blotting of cell extracts; 1 ml medium containing HiBiT-tagged CTHRC1 added to 15 ml DMEM on confluent, 2 h serum-starved wild-type or GPR180-/- HEK-293T cells; 10 min at 37 °C; 5 washes with ice-cold PBS; protein extraction; Nano-Glo HiBiT Blotting System

binding: binds
Substance: HiBiT-tagged CTHRC1 (Collagen triple helix repeat containing 1) (from UniProt Q96CG8 31-243) (ligand)
